These results are taken from publication PMC8601123 (Nanoscale, 2021).

This data set in a line: peptide synthesis. To be noted: conjugation step.

K16Cys-S-S-[PEG6-IPQA] gave a conjugation yield of 59% yield.
Then “K16-Cys-SMal-[PEG3-N-(4-((3-trimethylstannyl)amino)quinazolin-6-yl)acrylamide]”, with 55% yield.
